Publication PMC4072698

Key:
Experiment in all cases: EMSA
[1] = target: GFP-3xHA-AurB (UniProt Q6DE08); conditions: EMSA: 20 mM Hepes pH 7.8, 100 mM NaCl, 2 mM MgCl2, 4% glycerol, 1 mM beta-mercaptoethanol, 0.1 mg/ml yeast tRNA, 1 nM Cy5 transcript, room temperature, 30 min; recombinant protein; residues 1-361; label: Cy5-CTP (1:20) internal; probe letters rebuilt from the primers and the genome; part of a longer molecule
[2] = system: AurB/Incenp; conditions: EMSA: 20 mM Hepes pH 7.8, 100 mM NaCl, 2 mM MgCl2, 4% glycerol, 1 mM beta-mercaptoethanol, 0.1 mg/ml yeast tRNA, 1 nM Cy5 transcript, room temperature, 30 min; recombinant protein; label: Cy5-CTP (1:20) internal; probe letters rebuilt from the primers and the genome; part of a longer molecule
[3] = system: Survivin/DasraA; conditions: EMSA: 20 mM Hepes pH 7.8, 100 mM NaCl, 2 mM MgCl2, 4% glycerol, 1 mM beta-mercaptoethanol, 0.1 mg/ml yeast tRNA, 1 nM Cy5 transcript, room temperature, 30 min; recombinant protein; label: Cy5-CTP (1:20) internal; probe letters rebuilt from the primers and the genome; part of a longer molecule
[4] = system: CPC (AurB/Incenp/Survivin/DasraA); conditions: EMSA: 20 mM Hepes pH 7.8, 100 mM NaCl, 2 mM MgCl2, 4% glycerol, 1 mM beta-mercaptoethanol, 0.1 mg/ml yeast tRNA, 1 nM Cy5 transcript, room temperature, 30 min; recombinant protein; label: Cy5-CTP (1:20) internal; probe letters rebuilt from the primers and the genome; part of a longer molecule
[5] = target: Survivin (UniProt Q4R1J6); conditions: text: Survivin does not bind RNA on its own; EMSA: 20 mM Hepes pH 7.8, 100 mM NaCl, 2 mM MgCl2, 4% glycerol, 1 mM beta-mercaptoethanol, 0.1 mg/ml yeast tRNA, 1 nM Cy5 transcript, room temperature, 30 min; recombinant protein; label: Cy5-CTP (1:20) internal; probe letters rebuilt from the primers and the genome; part of a longer molecule

| Sequence | Kd [1] [nM] | Kd [2] [nM] | Kd [3] [nM] | Kd [4] [nM] | Kd [5] [nM] |
| --- | --- | --- | --- | --- | --- |
| CAAAUUGAUAAAGAGACAGAUGCAGAAAAAGCAUUUAAGGAAGGGAAAGAAAAAAGUGAAAAACGAUCUGCGCUAAAGGAGAGGGACUUAGAAAAGAAAAGCACUGAUAAAGAGAAGAAAUGGGGCUGAGCUGUGGGCUCAGGGAGAGGGGGACGAGGGUGCCAGAAAAUACAGACAAAUCUAAAUCACACCUGCAAUCCCCAGAUAAGCUUCAAAAGGAAAGCGAUAAAAUUAGGACUUCAGCUGUCGGCAAAAAAAACGAUGACAAAUCCAAAGACAGAAAAGACCGGAAUGAAAAGGACAAGCAUCUUGGAGAGCA [Xl. 19006 mutant RNA] | 118 | 59 | 67 | 38 | – |
| CAAAUUGAUAAAGAGACAGAUGCAGAAAAAGCAUUUAAGGAAGGGAAAGAAAAAAGUGAAAAACGAUCUGCGCUAAAGGAGAGGGACUUAGAAAAGAAAAGCACUGAUAAAGAGAAGAAGGCAAAAUCAGAUCACAAAUCUGAAAGAGAAAAAGUAGAAAUGCCAGAAAAUACAGACAAAUCUAAAUCACACCUGCAAUCCCCAGAUAAGCUUCAAAAGGAAAGCGAUAAAAUUAGGACUUCAGCUGUCGGCAAAAAAAACGAUGACAAAUCCAAAGACAGAAAAGACCGGAAUGAAAAGGACAAGCAUCUUGGAGAGCA [Xl. 19006 WT RNA] | 160 | 70 | 73 | 53 | 1110 |

The exact form of at least one protein or probe is not confirmed.
